The test relates to CAF1 mice, leiomyosarcoma No.2 ip, survival T/C%. As to the kind of experiment: NCI In Vivo Anticancer Drug Screen. Data for tumor model Leiomyosarcoma (No. 2) (intraperitoneal) in CAF1 mice. The conditions noted are these: T/C endpoint: mean survival time, schedule: Q01DX010 (ip), vehicle: saline, higher T/C = longer survival. As for the experimental part:
The antitumor activity of compounds was measured in mice bearing transplantable tumors. Survival or tumor size were measured and the results are expressed as the measurement made in the treated group (T) divided by the measurement made in the vehicle treated control group (C). The tumor model used in this assay is Leiomyosarcoma (No. 2) (intraperitoneal) in CAF1 mice

The list is a part of this screen's results and no random one: its compounds were picked by chemical class. Other doses and runs of a compound may be missing. T/C gives the treated animals as a percentage of the vehicle group. Where survival is the endpoint, this PubChem deposit counts one and a half times the control or more as active, and values a quarter to a half above the control carry no call in these data; other NCI protocols may use other cut-offs. Some T/C values are marked as having no survivor count here; that says nothing about deaths at the dose. Schedules are NCI's codes, taken here to give the interval after Q, in days (D) or hours (H), and the number of doses after X. Some entries were tested several times; the results are listed from low to high.

Take `CC(C(=O)O)N(CCCl)CCCl` (stereo unspecified): the T/C is, setting by setting: (dose: 0.5 mg/kg/injection) 145 [survivor count not shown] and 195 % of control [survivor count not shown]; (dose: 1.0 mg/kg/injection) 204 [survivor count not shown] and 212 % of control [survivor count not shown]; (dose: 2.0 mg/kg/injection) 175 [survivor count not shown] and 266 % of control [survivor count not shown]; (dose: 4.0 mg/kg/injection) 133 [survivor count not shown] and 137 % of control [survivor count not shown].

Regarding `NC1CCCCC1.NP(=O)(O)N(CCCl)CCCl`, the T/C runs as follows: (dose: 15.6 mg/kg/injection) 127 % of control [survivor count not shown]; (dose: 31.3 mg/kg/injection) 300 % of control [survivor count not shown]; (dose: 62.5 mg/kg/injection) 300 % of control [survivor count not shown].

Regarding `ClCCN(CCCl)Cc1nc2ccccc2[nH]1`, the T/C (dose: 0.63 mg/kg/injection) was 113 % of control [survivor count not shown]; the T/C (dose: 1.25 mg/kg/injection) was 144 [survivor count not shown] and 150 % of control [survivor count not shown]; the T/C (dose: 2.5 mg/kg/injection) is 158 [survivor count not shown] and 240 % of control [survivor count not shown]; the T/C (dose: 5.0 mg/kg/injection) was 179 % of control [survivor count not shown].

With `NC(Cc1cccc(N(CCCl)CCCl)c1)C(=O)O` (stereo unspecified), the T/C by setting is: (dose: 0.63 mg/kg/injection) 144 [survivor count not shown] and 209 % of control [survivor count not shown]; (dose: 1.25 mg/kg/injection) 210 [survivor count not shown] and 263 % of control [survivor count not shown]; (dose: 2.5 mg/kg/injection) 179 [survivor count not shown] and 250 % of control [survivor count not shown]; (dose: 5.0 mg/kg/injection) 89 % of control [survivor count not shown].

`O=C(O)CN(CCCl)CCCl`: the T/C is, setting by setting: (dose: 0.63 mg/kg/injection) 125 [survivor count not shown] and 237 % of control [survivor count not shown]; (dose: 1.25 mg/kg/injection) 200 [survivor count not shown] and 237 % of control [survivor count not shown]; (dose: 2.5 mg/kg/injection) 141 [survivor count not shown] and 300 % of control [survivor count not shown]; (dose: 5.0 mg/kg/injection) 133 [survivor count not shown] and 220 % of control [survivor count not shown].

For the compound `ClCCNCCCl`, the T/C was 189 [survivor count not shown] and 241 % of control [survivor count not shown] (dose: 18.8 mg/kg/injection); 282 [survivor count not shown] and 300 % of control [survivor count not shown] (dose: 37.5 mg/kg/injection).
